Assay results published in PMC5835773.
No constants are given. Whether binding was seen depends on the method and setting. Some binding calls cover weakened binding; strength is not graded here. Values belong to the molecule of their own block, whether it stands above or below them.

Amino acid sequences for entries named in this document (tags omitted).
UniProt O75533: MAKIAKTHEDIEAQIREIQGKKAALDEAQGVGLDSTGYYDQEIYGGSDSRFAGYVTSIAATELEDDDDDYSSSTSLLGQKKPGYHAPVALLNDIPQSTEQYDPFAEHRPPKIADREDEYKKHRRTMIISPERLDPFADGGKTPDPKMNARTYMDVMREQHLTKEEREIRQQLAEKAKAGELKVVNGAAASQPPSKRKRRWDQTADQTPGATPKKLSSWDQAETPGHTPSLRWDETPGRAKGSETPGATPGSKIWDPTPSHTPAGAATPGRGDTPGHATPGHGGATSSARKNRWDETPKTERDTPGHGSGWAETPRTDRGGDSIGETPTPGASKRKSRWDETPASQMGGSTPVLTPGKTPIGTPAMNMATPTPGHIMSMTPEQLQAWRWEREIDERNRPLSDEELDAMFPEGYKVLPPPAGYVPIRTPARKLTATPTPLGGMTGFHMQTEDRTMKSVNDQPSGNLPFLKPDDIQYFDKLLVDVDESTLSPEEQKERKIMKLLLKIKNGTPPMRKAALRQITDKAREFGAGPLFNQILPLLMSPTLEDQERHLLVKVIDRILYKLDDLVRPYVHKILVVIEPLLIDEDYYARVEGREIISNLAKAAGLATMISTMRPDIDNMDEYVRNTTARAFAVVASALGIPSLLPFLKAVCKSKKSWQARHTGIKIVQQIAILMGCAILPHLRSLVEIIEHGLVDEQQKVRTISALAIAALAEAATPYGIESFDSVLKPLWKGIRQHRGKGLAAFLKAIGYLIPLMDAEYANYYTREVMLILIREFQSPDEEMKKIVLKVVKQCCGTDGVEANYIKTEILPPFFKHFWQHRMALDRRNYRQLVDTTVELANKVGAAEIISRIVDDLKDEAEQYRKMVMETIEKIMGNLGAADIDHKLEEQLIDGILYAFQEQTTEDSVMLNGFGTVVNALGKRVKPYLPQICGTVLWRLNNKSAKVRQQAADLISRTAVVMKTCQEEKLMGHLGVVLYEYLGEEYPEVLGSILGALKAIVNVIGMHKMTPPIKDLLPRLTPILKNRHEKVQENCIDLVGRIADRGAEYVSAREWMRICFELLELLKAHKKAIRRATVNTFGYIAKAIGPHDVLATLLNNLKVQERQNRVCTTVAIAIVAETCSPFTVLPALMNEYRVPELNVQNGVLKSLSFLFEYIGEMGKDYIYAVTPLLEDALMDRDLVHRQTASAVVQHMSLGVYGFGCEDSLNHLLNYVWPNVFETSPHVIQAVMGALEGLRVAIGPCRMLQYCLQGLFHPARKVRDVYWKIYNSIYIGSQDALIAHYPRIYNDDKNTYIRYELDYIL
UniProt Q13435: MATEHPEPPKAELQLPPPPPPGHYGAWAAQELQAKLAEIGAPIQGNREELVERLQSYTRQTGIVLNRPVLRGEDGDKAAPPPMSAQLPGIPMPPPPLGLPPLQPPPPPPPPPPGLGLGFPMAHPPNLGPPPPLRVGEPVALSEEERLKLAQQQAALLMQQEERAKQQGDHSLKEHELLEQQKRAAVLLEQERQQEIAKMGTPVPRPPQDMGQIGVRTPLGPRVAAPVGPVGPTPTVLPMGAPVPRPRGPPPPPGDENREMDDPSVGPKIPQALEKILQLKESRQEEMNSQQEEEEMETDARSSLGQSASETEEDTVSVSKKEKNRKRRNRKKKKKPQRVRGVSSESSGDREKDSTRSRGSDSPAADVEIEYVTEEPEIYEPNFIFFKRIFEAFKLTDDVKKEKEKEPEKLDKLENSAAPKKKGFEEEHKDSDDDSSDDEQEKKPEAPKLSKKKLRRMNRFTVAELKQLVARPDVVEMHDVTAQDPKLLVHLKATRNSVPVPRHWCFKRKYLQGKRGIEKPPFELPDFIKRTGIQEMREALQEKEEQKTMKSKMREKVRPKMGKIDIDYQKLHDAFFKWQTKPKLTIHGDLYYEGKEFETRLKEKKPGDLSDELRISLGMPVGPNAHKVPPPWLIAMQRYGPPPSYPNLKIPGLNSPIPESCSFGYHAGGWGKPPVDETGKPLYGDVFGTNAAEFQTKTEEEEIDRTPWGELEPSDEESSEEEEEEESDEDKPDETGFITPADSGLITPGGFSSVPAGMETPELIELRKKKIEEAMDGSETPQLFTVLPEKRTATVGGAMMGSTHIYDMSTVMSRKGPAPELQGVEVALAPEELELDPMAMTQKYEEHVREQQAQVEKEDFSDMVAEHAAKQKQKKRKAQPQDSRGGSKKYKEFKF
UniProt Q15393: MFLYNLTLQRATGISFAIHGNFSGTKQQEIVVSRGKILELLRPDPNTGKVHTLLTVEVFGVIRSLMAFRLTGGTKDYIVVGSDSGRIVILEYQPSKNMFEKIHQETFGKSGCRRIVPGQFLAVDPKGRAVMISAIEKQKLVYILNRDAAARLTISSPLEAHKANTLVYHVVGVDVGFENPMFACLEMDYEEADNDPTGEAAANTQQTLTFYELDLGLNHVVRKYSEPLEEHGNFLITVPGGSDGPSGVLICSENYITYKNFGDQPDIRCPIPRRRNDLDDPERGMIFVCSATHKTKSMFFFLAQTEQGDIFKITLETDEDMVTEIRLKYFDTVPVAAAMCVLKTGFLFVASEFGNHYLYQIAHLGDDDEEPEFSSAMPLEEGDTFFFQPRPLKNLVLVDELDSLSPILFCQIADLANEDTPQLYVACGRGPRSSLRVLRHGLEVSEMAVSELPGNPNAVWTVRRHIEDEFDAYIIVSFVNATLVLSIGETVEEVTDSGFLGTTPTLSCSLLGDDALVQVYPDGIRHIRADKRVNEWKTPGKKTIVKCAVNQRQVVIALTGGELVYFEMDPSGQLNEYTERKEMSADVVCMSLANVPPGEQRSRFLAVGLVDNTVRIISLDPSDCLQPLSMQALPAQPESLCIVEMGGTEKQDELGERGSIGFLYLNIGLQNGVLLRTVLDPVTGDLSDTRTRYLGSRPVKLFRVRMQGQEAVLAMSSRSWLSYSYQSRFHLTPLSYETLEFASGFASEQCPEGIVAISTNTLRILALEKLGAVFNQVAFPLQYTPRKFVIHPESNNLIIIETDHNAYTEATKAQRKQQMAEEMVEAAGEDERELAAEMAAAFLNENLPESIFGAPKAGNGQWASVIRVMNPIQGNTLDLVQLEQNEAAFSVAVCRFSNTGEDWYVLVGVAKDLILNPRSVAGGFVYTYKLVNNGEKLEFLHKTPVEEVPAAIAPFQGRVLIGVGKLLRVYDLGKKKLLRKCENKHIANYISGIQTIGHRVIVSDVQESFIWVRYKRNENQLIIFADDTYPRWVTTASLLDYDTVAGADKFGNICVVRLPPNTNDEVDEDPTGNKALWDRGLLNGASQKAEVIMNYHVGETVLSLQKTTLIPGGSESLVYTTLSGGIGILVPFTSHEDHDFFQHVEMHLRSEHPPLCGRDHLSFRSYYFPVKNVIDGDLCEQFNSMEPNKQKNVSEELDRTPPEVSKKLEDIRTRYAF

Experiments:
Assay in all cases: cryo-EM structure; human B^act spliceosome assembled on MS2-tagged MINX pre-mRNA in HeLa S3 nuclear extract, purified on amylose resin and a glycerol gradient with glutaraldehyde cross-linking; early (4.9 Å), mature (5.1 Å) and late (6.5 Å) states, SF3b region 4.2 Å; models built by homology modelling and docking of known structures
[1] = target: SF3b155 (human (endogenous in HeLa)) (UniProt O75533)
[2] = target: T1, SNIP1 (human (endogenous in HeLa)) (UniProt Q8TAD8)
T1 sequence: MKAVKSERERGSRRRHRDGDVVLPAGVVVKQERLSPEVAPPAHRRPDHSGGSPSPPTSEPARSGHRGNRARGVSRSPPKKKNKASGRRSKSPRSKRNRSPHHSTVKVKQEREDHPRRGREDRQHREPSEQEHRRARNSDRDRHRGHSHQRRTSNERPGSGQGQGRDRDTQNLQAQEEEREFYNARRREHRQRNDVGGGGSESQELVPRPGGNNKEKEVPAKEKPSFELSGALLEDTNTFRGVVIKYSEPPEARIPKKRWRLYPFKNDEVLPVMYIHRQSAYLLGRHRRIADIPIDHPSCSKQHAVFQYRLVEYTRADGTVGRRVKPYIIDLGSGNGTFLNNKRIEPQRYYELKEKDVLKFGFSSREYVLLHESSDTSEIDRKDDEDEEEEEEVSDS

[3] = target: T2, SKIP (human (endogenous in HeLa)) (UniProt Q13573)
T2 sequence: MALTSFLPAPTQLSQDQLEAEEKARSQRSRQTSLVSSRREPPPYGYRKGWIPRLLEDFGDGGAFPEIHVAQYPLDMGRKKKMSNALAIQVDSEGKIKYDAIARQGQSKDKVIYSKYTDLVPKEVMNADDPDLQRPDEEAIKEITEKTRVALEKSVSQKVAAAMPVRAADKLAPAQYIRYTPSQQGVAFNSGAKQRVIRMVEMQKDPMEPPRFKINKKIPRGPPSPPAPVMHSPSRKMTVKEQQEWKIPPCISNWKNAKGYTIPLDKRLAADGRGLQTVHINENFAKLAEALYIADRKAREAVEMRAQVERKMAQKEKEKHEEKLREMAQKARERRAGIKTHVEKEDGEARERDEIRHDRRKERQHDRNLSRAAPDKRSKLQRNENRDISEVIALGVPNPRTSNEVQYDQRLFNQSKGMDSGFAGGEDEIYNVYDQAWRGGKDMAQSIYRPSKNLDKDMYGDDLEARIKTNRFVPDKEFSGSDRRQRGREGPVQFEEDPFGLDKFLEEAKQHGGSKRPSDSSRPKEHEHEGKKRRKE

[4] = target: SF3b145 (human (endogenous in HeLa)) (UniProt Q13435)
[5] = target: Prp8 (human (endogenous in HeLa)) (UniProt Q6P2Q9)

binding [1]: binds
Molecule: SF3b145 (from UniProt Q13435 1-895)

binding [2]: binds | binding [3]: binds
Molecule: SF3b155 (from UniProt O75533 1-1304)

binding [1]: binds | binding [4]: binds
Molecule: SF3b130 (from UniProt Q15393 1-1217)

binding [5]: binds
B1: Bud13 (protein, UniProt Q9BRD0 1-619)
chain: MAAAPPLSKAEYLKRYLSGADAGVDRGSESGRKRRKKRPKPGGAGGKGMRIVDDDVSWTAISTTKLEKEEEEDDGDLPVVAEFVDERPEEVKQMEAFRSSAKWKLLGGHNEDLPSNRHFRHDTPDSSPRRVRHGTPDPSPRKDRHDTPDPSPRRARHDTPDPSPLRGARHDSDTSPPRRIRHDSSDTSPPRRARHDSPDPSPPRRPQHNSSGASPRRVRHDSPDPSPPRRARHGSSDISSPRRVHNNSPDTSRRTLGSSDTQQLRRARHDSPDLAPNVTYSLPRTKSGKAPERASSKTSPHWKESGASHLSFPKNSKYEYDPDISPPRKKQAKSHFGDKKQLDSKGDCQKATDSDLSSPRHKQSPGHQDSDSDLSPPRNRPRHRSSDSDLSPPRRRQRTKSSDSDLSPPRRSQPPGKKAAHMYSGAKTGLVLTDIQREQQELKEQDQETMAFEAEFQYAETVFRDKSGRKRNLKLERLEQRRKAEKDSERDELYAQWGKGLAQSRQQQQNVEDAMKEMQKPLARYIDDEDLDRMLREQEREGDPMANFIKKNKAKENKNKKVRPRYSGPAPPPNRFNIWPGYRWDGVDRSNGFEQKRFARLASKKAVEELAYKWSVEDM

binding [5]: binds
B2: NY-CO-10 (protein, UniProt Q6UX04 1-472)
chain: MSNIYIQEPPTNGKVLLKTTAGDIDIELWSKEAPKACRNFIQLCLEAYYDNTIFHRVVPGFIVQGGDPTGTGSGGESIYGAPFKDEFHSRLRFNRRGLVAMANAGSHDNGSQFFFTLGRADELNNKHTIFGKVTGDTVYNMLRLSEVDIDDDERPHNPHKIKSCEVLFNPFDDIIPREIKRLKKEKPEEEVKKLKPKGTKNFSLLSFGEEAEEEEEEVNRVSQSMKGKSKSSHDLLKDDPHLSSVPVVESEKGDAPDLVDDGEDESAEHDEYIDGDEKNLMRERIAKKLKKDTSANVKSAGEGEVEKKSVSRSEELRKEARQLKRELLAAKQKKVENAAKQAEKRSEEEEAPPDGAVAEYRREKQKYEALRKQQSKKGTSREDQTLALLNQFKSKLTQAIAETPENDIPETEVEDDEGWMSHVLQFEDKSRKVKDASMQDSDTFEIYDPRNPVNKRRREESKKLMREKKERR
